Experimental data taken from publication PMC11341699.
Results are given in words; binding and its absence hold for the method and conditions named. In cells and extracts the contact can be indirect. Some binding calls cover weakened binding; strength is not graded here.

The chains behind the UniProt entries cited, without tags or fusion partners. Where a name states a change or a piece, a line headed by the entry shows the natural chain unless it says otherwise.
UniProt Q3TJD7: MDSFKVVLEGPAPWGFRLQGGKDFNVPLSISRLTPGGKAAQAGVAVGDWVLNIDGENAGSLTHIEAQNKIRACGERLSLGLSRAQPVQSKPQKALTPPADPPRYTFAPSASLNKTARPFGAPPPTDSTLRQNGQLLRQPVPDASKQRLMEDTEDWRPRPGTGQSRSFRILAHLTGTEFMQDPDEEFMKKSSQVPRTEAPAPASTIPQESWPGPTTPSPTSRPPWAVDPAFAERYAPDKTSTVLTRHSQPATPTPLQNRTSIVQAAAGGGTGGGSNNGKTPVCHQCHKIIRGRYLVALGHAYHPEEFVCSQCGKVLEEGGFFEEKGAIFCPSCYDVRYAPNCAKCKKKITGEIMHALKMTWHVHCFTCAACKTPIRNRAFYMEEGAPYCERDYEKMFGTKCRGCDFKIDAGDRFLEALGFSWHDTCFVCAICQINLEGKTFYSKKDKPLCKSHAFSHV
UniProt Q7TPH6: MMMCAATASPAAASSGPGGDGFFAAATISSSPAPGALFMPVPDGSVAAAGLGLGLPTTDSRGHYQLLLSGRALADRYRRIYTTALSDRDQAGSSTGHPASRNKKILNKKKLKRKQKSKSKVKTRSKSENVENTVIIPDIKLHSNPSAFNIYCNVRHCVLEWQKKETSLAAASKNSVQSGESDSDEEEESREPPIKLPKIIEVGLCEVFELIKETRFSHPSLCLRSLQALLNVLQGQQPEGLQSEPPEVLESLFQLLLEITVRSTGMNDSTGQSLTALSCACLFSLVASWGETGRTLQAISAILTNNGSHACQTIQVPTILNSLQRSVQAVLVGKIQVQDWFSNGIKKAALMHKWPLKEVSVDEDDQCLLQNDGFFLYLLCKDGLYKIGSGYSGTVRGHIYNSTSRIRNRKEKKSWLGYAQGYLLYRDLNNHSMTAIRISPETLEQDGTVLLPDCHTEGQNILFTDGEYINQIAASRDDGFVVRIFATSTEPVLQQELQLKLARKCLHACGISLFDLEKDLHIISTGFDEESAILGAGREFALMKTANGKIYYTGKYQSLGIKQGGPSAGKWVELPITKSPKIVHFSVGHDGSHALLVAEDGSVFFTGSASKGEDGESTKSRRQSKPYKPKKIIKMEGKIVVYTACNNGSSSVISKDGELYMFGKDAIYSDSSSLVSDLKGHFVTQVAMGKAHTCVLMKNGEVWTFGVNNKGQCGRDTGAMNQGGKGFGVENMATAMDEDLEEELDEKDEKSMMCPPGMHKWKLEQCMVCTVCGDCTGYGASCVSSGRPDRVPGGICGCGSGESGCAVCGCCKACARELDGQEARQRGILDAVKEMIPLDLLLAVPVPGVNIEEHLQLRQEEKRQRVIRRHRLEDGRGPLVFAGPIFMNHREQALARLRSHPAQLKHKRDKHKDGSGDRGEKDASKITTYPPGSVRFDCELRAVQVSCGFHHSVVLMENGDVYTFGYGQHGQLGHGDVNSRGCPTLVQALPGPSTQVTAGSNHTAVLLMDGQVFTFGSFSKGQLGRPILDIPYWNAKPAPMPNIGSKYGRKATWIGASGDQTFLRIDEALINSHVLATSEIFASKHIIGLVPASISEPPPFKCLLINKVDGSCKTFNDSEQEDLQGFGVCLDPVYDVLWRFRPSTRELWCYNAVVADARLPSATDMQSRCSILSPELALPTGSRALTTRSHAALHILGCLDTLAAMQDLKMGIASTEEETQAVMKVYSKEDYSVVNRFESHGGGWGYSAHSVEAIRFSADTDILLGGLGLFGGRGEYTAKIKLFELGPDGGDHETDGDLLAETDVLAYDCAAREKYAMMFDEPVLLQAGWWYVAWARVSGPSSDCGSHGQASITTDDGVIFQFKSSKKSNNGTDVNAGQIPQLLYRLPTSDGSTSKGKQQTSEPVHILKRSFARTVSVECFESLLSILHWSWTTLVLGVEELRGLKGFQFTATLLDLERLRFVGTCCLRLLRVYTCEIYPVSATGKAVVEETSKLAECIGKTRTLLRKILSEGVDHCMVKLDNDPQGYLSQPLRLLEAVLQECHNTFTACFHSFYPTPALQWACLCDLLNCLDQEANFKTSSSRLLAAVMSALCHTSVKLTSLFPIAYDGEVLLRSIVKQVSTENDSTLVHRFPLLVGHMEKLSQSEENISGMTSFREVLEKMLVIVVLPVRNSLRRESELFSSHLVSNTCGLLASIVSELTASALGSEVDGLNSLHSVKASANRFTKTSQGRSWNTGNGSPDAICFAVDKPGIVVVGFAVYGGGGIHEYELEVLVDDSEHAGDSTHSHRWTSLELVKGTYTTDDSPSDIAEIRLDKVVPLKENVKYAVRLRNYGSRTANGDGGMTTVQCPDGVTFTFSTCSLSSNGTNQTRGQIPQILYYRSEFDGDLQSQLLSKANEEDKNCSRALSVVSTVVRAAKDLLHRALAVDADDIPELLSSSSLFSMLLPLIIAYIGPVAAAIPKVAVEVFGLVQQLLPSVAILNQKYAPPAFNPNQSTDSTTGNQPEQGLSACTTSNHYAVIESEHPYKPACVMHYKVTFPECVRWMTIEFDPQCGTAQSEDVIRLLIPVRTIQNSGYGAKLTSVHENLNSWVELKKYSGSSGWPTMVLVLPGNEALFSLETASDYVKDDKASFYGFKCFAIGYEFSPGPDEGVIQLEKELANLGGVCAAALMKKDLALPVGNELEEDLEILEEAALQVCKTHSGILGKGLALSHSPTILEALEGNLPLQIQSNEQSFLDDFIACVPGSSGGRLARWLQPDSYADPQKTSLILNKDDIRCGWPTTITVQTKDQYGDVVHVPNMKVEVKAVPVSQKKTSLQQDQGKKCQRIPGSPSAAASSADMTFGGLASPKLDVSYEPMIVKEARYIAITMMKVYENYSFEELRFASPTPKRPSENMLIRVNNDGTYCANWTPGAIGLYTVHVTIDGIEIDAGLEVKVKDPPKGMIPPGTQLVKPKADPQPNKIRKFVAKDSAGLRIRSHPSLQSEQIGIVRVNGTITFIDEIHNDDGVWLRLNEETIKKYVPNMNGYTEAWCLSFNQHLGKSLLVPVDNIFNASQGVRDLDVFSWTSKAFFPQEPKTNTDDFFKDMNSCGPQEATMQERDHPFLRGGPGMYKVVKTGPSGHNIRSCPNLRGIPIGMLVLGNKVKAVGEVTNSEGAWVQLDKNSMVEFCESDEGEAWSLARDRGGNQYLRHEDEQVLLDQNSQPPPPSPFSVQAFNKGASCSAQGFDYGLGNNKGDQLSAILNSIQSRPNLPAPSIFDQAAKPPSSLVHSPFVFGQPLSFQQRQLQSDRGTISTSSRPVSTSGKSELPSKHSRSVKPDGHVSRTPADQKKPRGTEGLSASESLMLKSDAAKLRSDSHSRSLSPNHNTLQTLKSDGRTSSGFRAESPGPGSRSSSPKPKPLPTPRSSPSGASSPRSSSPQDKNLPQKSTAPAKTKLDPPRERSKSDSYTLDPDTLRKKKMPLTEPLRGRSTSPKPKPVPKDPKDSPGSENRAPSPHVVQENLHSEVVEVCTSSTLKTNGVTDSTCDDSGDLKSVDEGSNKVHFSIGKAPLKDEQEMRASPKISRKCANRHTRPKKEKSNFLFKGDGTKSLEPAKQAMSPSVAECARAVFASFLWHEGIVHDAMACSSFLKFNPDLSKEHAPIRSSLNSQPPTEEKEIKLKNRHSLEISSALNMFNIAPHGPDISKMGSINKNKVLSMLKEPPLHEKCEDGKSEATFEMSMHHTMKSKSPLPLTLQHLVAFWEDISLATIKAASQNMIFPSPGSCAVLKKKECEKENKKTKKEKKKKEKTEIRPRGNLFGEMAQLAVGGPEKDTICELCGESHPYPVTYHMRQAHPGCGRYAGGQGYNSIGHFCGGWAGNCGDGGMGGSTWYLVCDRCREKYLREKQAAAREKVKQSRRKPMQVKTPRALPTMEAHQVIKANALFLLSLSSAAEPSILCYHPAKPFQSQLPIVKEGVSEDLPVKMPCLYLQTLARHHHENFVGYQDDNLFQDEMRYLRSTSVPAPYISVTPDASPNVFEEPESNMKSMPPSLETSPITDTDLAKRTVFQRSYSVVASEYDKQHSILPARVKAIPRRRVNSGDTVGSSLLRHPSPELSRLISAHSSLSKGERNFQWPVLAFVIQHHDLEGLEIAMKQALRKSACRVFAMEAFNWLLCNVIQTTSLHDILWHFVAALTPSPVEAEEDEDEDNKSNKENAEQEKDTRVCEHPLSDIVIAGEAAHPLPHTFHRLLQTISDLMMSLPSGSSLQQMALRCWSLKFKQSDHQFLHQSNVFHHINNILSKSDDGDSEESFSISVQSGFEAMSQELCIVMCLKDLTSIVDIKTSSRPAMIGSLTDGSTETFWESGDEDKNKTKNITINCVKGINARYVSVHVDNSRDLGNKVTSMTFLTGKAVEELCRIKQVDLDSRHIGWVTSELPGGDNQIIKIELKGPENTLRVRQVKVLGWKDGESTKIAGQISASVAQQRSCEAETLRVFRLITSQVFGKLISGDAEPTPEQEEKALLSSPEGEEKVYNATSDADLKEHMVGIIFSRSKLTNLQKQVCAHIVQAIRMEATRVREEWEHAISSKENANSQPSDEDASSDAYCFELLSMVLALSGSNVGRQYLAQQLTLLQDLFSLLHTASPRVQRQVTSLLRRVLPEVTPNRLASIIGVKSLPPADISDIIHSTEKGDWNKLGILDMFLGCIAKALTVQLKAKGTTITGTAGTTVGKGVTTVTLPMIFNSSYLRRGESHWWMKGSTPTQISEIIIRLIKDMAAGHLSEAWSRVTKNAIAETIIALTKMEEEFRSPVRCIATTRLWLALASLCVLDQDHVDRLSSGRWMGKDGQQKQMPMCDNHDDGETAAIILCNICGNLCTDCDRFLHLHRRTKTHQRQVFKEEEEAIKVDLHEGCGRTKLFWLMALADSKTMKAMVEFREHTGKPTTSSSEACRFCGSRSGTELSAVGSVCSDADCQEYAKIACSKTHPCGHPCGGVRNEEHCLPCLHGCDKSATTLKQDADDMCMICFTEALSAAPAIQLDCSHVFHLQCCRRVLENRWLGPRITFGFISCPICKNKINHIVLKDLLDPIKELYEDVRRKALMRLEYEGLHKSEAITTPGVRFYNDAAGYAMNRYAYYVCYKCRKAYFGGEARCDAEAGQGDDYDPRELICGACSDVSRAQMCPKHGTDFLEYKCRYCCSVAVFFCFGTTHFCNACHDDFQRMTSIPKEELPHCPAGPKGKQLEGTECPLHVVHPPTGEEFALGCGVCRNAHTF
UniProt P97471: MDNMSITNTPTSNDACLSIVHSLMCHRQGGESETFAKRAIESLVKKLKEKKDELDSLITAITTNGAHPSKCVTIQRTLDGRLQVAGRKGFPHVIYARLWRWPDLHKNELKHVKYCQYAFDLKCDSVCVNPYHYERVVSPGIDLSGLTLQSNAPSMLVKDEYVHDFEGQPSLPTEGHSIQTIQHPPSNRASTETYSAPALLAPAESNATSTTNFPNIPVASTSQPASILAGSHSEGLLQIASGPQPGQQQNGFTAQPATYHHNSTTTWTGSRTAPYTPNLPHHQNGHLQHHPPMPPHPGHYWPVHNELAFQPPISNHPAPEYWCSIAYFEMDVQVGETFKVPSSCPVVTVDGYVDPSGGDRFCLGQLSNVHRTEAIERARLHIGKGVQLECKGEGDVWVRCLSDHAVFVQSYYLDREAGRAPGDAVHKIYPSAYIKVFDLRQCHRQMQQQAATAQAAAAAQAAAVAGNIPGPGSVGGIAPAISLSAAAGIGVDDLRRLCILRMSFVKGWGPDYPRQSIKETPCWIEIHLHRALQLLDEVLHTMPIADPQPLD

Legend:
[1] = target: PDZ and LIM domain 7 (mouse (endogenous in SVFs, mature adipocytes, H5V)) (UniProt Q3TJD7); test: co-IP; endogenous proteins in lysates of mouse SVFs (Pierce IP Lysis Buffer), antibody overnight at 4 °C, Protein A/G resin, immunoblot; some panels after ANXA1 siRNA, PDLIM7 siRNA or NC siRNA for 48 h and 10 µM MG132 for 6 h
[2] = target: PDZ and LIM domain 7 (mouse (endogenous in SVFs, mature adipocytes, H5V)) (UniProt Q3TJD7); test: co-IP; endogenous proteins in lysates of mature adipocytes, Protein A/G resin, immunoblot
[3] = target: PDZ and LIM domain 7 (mouse (endogenous in SVFs, mature adipocytes, H5V)) (UniProt Q3TJD7); test: co-IP; endogenous proteins in lysates of the murine microvascular endothelial cell line H5V, Protein A/G resin, immunoblot
[4] = target: T1, Annexin A1 (mouse (endogenous in SVFs, mature adipocytes, H5V)) (UniProt P10107); test: co-IP; endogenous proteins in lysates of mouse SVFs (Pierce IP Lysis Buffer), antibody overnight at 4 °C, Protein A/G resin, immunoblot; some panels after ANXA1 siRNA, PDLIM7 siRNA or NC siRNA for 48 h and 10 µM MG132 for 6 h
T1 sequence: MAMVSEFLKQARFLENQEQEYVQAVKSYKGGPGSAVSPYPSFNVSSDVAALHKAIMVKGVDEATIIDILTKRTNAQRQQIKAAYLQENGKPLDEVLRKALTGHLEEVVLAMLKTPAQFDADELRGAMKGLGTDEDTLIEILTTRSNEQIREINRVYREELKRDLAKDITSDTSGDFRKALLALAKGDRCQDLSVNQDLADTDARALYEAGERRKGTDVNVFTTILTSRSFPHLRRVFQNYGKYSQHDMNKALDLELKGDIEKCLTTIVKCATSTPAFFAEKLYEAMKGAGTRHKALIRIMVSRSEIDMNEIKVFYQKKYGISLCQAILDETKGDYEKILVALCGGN

[5] = target: T1, Annexin A1 (mouse (endogenous in SVFs, mature adipocytes, H5V)); test: co-IP; endogenous proteins in lysates of mature adipocytes, Protein A/G resin, immunoblot
[6] = target: T1, Annexin A1 (mouse (endogenous in SVFs, mature adipocytes, H5V)); test: co-IP; endogenous proteins in lysates of the murine microvascular endothelial cell line H5V, Protein A/G resin, immunoblot
[7] = target: MYC binding protein 2 (mouse (endogenous in SVFs, mature adipocytes, H5V)) (UniProt Q7TPH6); test: co-IP; endogenous proteins in lysates of mouse SVFs (Pierce IP Lysis Buffer), antibody overnight at 4 °C, Protein A/G resin, immunoblot; some panels after ANXA1 siRNA, PDLIM7 siRNA or NC siRNA for 48 h and 10 µM MG132 for 6 h
[8] = target: MYC binding protein 2 (mouse (endogenous in SVFs, mature adipocytes, H5V)) (UniProt Q7TPH6); test: co-IP; endogenous proteins in lysates of mature adipocytes, Protein A/G resin, immunoblot
[9] = target: MYC binding protein 2 (mouse (endogenous in SVFs, mature adipocytes, H5V)) (UniProt Q7TPH6); test: co-IP; endogenous proteins in lysates of the murine microvascular endothelial cell line H5V, Protein A/G resin, immunoblot

Measured: binding

MYC binding protein 2 (from UniProt Q7TPH6 1-4749) (enzyme)
binds: [1] | [2] | [3]

PDZ and LIM domain 7 (from UniProt Q3TJD7 1-457)
binds: [4] | [5] | [6]

SMAD family member 4 (from UniProt P97471 1-551)
binds: [7] | [8] | [9]
